{
  "sequences": {"note": "By UniProt entry, the sequences of proteins in these tests, tags left out. Where a name states a change or a piece, a line headed by the entry shows the natural chain unless it says otherwise.", "UniProt O94782": "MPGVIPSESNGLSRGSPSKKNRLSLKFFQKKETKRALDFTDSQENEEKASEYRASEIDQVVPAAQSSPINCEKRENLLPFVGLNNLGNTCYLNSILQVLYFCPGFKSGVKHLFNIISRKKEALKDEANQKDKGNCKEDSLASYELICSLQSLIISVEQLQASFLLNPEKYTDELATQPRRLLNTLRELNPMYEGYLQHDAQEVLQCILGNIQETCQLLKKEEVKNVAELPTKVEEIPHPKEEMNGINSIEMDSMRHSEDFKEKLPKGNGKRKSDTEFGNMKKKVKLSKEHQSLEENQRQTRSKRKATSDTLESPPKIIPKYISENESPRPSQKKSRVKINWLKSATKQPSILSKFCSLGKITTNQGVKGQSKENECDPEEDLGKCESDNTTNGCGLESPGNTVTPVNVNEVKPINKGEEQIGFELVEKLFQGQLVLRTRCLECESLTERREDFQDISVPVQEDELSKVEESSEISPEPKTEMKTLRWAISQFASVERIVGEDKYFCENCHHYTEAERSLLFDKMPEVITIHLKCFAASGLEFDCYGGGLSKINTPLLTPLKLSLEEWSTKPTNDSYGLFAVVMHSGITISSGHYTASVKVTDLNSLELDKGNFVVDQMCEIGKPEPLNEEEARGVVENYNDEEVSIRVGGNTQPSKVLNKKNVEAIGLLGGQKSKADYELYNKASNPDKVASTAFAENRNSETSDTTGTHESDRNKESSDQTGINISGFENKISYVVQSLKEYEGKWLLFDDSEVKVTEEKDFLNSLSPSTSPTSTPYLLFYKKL"},
  "source": "PubChem BioAssay AID743255",
  "about": "(National Center for Advancing Translational Sciences (NCATS), 2014)",
  "note": "Out of some 390,000 compounds screened, about 910 (0.23%) were called active. The inconclusive results got no clear call from the source; some entries with a clear call stand among them for comparison. Calls follow the shape of the dose curve; as a rule, active = well fitted inhibition curve with a large enough effect; inconclusive = small, poorly fitted or top-dose-only effect; inactive = no such curve, though single readings can be large or run the other way. A potency beside an inconclusive call is a rough fit, not a confirmed value. % is scaled to controls: 0 for no effect and ±100 for the full control effect; potency is read from the fitted curve at half-maximal effect.",
  "data": [
    {"target": "Ubiquitin carboxyl-terminal hydrolase 1 (Homo sapiens) (UniProt O94782)", "test": "Inhibitors of USP1/UAF1: Primary Screen; also: nearly all actives have a fitted effect of over 60% in size", "conditions": "recombinant USP1/UAF1, Ub-Rhodamine cleavage fluorescence; activity change, negative = inhibition: at 57.1 µM (top of the series)", "summary_of_the_method": "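USP1/UAF1 complex (1 nM) preincubated 15 min at room temperature with compound, then Ub-Rho substrate (150 nM final) added. Kinetic fluorescence at 480/540 nm over 6 reads at 60 s intervals; 50 mM HEPES pH 7.8, 0.5 mM EDTA, 0.1 mg/ml BSA, 1 mM TCEP, 0.01% Tween-20.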", "values": [
      {"smiles": "CSc1ccc(CCNC(=O)c2ccc(-c3nc(COc4ccccc4)c(C)o3)cc2)cc1", "Potency": "inconclusive: 0.708 µM [inhibitor, full curve, poor fit]"},
      {"smiles": "Cc1nc2c(-c3ccccc3)c(C)nn2c(C)c1CCC(=O)N1CCN(c2ccc(F)cc2)CC1", "Potency": "inconclusive: 44.7 µM [inhibitor, partial curve]"},
      {"smiles": "C/C(=N\\Nc1cc(-c2ccccc2)nc(-c2ccccc2)n1)c1ccc(O)c(C)c1", "activity change, negative = inhibition": "inactive: -12.4%"},
      {"smiles": "O=C(Nc1ccc(OCc2ccccc2)cc1)c1ccccc1", "activity change, negative = inhibition": "inactive: -10.4%"},
      {"smiles": "O=C(Cn1cc(COc2ccccc2[N+](=O)[O-])nn1)c1ccc(O)cc1", "Potency": "inconclusive: 112 µM [inhibitor, partial curve, poor fit]"},
      {"smiles": "Cc1cc(C(F)(F)F)nc2c(Cl)c(C(C)(C)C)nn12", "Potency": "inconclusive: 4.47 µM [inhibitor, partial curve]"},
      {"smiles": "CCN(CC)c1nc(-c2cccc(OC)c2O)nc2ccccc12", "Potency": "inconclusive: 35.5 µM [inhibitor, partial curve]"},
      {"smiles": "COc1ccc(C(=O)Nc2nnc(-c3ccco3)s2)cc1", "Potency": "inconclusive: 39.8 µM [inhibitor, single point]"},
      {"smiles": "Cc1nc2scc(C)n2c(=O)c1S(=O)(=O)N1CCN(c2ccccc2)CC1", "Potency": "inconclusive: 7.08 µM [inhibitor, partial curve, poor fit]"},
      {"smiles": "C1=C(c2ccc(-c3ccccc3)cc2)Nc2ncnn2C1c1ccco1", "note": "(configuration not stated)", "Potency": "active: 14.1 µM"},
      {"smiles": "CCc1ccc(NCc2cc3cc4c(cc3n(CC(=O)Nc3cccc(OC)c3)c2=O)OCO4)cc1", "Potency": "inconclusive: 31.6 µM [inhibitor, partial curve, poor fit]"},
      {"smiles": "COC(=O)c1ccc(NC(=O)c2cc3c(CO)cnc(C)c3oc2=Nc2cccc(C(N)=O)c2)cc1", "activity change, negative = inhibition": "inconclusive: -3.87% [inhibitor]"},
      {"smiles": "O=[N+]([O-])c1ccc2[nH]c(=S)[nH]c2c1", "Potency": "inconclusive: 39.8 µM [inhibitor, partial curve, poor fit]"},
      {"smiles": "COc1ccc(-c2cc(C(F)(F)F)nc(SCCC(=O)NCc3ccccc3)n2)cc1", "Potency": "inconclusive: 44.7 µM [inhibitor, partial curve]"},
      {"smiles": "O=C(NCc1ccc(F)cc1)c1cc2ccccc2o1", "Potency": "inconclusive: 31.6 µM [inhibitor, partial curve, poor fit]"},
      {"smiles": "N#C/C(=C/c1ccc(-c2ccc(S(N)(=O)=O)cc2)o1)c1nc2ccccc2s1", "activity change, negative = inhibition": "inactive: 346%"},
      {"smiles": "Cc1ccc(S(=O)(=O)c2nnn3c2nc(N2CCCC2)c2sccc23)cc1C", "Potency": "inconclusive: 89.1 µM [inhibitor, partial curve, poor fit]"}
    ]}
  ]
}
